PMC6932917

Sequences of proteins named here, by UniProt entry; tags and fusion partners are left off. Residues count along the entry.
UniProt P09874: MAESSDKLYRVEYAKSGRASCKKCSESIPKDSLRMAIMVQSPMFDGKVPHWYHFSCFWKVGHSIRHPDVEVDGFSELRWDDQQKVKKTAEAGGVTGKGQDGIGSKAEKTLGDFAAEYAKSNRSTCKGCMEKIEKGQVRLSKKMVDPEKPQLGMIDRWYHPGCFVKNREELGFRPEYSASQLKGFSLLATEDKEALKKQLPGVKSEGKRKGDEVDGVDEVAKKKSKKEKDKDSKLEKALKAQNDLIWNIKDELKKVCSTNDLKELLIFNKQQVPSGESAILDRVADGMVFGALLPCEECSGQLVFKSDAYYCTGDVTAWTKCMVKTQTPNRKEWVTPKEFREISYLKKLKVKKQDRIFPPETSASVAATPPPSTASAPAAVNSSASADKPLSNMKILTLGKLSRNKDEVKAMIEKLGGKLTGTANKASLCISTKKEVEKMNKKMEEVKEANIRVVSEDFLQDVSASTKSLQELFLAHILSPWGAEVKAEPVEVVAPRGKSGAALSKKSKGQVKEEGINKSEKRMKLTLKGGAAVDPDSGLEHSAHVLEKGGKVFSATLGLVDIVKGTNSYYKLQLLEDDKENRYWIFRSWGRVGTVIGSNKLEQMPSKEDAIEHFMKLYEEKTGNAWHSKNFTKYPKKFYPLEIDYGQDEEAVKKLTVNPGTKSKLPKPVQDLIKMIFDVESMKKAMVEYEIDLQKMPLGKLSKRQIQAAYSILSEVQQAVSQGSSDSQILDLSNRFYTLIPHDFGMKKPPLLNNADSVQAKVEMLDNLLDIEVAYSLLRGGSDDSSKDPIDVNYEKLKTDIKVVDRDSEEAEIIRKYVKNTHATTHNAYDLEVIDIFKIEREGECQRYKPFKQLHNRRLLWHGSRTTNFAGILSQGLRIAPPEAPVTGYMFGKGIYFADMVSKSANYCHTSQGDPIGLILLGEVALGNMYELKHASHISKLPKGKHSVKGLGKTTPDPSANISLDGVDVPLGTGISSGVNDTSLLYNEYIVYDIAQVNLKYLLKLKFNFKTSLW
UniProt P67809: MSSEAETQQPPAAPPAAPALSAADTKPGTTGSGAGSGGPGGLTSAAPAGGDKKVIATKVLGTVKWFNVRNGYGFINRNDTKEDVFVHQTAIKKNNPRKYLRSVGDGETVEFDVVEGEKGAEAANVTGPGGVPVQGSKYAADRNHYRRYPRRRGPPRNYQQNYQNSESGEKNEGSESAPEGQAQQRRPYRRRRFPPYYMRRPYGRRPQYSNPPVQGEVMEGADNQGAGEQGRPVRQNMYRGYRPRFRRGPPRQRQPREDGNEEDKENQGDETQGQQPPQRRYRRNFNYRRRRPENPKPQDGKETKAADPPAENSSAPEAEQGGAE
UniProt P38159: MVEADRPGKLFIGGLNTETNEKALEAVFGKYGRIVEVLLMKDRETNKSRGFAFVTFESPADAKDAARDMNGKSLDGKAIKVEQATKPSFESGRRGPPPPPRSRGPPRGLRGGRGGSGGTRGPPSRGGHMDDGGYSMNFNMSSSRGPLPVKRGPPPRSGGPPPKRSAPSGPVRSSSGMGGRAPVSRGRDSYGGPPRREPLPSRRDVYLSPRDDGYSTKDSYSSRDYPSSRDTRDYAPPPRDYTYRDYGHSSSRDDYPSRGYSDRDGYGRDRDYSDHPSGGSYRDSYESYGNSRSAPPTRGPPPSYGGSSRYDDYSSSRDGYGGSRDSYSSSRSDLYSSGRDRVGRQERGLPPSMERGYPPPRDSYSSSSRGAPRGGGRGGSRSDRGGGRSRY
UniProt P31153: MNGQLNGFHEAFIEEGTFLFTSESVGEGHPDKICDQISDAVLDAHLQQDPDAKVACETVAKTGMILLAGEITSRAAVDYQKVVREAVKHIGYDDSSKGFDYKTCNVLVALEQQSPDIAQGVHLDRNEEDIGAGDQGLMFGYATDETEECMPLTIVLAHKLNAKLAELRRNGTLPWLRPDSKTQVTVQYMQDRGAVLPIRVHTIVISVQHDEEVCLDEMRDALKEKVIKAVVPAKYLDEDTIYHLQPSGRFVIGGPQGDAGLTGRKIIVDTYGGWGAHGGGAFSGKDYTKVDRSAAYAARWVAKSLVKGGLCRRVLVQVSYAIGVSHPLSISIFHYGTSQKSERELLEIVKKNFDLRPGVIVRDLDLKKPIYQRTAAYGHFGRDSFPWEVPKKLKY
UniProt P35637: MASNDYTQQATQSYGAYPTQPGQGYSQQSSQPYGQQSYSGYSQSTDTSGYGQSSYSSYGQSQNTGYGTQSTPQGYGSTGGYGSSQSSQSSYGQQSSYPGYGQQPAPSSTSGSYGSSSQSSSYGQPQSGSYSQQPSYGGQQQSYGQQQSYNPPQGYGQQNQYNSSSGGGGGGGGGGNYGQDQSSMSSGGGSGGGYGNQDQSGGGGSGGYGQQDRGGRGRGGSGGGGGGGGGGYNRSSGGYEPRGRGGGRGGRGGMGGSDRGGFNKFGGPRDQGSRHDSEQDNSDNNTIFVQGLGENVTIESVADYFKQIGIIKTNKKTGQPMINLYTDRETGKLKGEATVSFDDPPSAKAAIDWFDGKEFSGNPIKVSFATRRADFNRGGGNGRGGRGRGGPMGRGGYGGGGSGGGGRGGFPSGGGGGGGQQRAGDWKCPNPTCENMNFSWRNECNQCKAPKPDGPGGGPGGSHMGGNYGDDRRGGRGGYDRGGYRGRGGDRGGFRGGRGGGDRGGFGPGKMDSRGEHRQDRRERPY
UniProt Q15717: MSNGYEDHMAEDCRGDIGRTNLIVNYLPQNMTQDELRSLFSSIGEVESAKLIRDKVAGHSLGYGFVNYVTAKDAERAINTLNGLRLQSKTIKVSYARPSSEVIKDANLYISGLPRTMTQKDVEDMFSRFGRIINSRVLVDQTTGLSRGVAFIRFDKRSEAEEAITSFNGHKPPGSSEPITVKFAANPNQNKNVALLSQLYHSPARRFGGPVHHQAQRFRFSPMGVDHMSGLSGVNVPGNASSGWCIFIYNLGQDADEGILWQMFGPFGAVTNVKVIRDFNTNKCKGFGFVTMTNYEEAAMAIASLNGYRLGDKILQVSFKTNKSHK
UniProt P27816: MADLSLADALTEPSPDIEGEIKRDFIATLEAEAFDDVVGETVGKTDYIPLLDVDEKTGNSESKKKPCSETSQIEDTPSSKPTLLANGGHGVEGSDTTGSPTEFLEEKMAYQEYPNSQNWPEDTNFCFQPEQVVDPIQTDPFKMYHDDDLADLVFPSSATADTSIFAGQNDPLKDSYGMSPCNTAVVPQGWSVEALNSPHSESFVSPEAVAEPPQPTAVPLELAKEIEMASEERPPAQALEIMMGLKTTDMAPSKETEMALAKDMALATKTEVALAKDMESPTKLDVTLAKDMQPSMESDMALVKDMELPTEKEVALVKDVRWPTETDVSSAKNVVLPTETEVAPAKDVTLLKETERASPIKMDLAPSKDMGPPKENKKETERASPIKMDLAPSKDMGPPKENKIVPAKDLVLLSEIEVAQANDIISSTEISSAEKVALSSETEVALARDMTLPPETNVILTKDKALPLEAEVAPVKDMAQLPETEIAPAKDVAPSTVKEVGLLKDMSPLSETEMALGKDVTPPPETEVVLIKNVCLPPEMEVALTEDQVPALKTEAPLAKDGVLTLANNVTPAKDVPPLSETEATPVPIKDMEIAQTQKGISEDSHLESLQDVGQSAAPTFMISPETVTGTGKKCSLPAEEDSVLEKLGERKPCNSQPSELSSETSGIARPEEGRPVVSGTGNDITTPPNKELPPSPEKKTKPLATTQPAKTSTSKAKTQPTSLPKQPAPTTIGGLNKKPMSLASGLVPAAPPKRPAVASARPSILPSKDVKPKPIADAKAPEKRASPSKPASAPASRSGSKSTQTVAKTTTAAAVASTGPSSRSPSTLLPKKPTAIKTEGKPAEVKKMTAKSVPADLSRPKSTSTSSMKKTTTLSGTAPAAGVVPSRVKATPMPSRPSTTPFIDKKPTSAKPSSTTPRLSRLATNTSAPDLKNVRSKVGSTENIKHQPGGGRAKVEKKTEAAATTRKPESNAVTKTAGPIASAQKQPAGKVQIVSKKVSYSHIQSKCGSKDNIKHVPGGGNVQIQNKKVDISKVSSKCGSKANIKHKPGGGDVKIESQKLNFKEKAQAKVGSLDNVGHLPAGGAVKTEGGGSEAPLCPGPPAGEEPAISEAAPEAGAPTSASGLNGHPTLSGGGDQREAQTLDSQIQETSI
UniProt P18065, residues 36-325: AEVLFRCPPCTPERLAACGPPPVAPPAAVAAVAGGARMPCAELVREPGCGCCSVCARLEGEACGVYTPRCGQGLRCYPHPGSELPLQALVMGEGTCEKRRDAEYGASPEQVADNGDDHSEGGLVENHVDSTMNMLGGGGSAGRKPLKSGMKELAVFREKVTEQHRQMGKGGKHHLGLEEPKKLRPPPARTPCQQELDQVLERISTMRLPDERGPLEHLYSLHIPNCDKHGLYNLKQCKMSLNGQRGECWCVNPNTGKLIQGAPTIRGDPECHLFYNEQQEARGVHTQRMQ
UniProt P60842: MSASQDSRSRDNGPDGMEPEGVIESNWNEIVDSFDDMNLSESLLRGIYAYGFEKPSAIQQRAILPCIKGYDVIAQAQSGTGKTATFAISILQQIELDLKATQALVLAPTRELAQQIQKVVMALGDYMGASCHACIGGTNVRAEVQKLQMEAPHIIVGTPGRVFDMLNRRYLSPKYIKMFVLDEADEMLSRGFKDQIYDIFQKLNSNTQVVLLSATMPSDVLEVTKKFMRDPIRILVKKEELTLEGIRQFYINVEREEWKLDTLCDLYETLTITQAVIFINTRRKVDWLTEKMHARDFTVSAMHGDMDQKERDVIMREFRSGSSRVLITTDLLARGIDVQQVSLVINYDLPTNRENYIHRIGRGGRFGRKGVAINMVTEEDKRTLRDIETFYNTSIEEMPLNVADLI
UniProt P42771: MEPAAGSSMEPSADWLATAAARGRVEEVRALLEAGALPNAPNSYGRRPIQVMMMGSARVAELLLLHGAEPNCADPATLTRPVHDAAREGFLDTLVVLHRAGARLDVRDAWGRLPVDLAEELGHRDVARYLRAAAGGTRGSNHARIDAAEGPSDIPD
UniProt P12004: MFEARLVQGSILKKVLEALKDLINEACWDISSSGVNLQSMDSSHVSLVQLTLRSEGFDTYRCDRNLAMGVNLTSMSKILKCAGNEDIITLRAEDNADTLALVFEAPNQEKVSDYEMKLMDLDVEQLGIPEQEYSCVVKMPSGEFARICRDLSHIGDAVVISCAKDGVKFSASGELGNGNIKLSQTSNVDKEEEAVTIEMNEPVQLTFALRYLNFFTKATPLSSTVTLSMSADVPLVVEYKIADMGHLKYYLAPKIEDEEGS
UniProt Q13283: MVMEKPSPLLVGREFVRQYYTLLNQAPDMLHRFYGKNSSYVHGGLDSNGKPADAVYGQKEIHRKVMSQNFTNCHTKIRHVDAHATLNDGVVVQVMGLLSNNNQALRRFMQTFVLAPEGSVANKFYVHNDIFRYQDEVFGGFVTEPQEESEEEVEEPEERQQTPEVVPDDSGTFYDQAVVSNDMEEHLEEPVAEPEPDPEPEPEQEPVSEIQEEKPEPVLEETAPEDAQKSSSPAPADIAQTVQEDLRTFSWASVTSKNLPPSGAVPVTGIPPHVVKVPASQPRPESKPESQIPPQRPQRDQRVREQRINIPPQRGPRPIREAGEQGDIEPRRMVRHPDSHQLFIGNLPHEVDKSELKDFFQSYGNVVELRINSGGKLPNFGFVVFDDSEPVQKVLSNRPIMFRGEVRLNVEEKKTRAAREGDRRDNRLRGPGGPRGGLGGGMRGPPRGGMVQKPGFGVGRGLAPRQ
UniProt P00441: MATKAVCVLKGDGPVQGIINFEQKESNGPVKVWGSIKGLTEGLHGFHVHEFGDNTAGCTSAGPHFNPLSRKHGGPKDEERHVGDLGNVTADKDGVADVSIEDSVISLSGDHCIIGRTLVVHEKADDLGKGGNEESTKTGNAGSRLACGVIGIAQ

T1: N-terminally 3xHA-tagged human RXFP3 (relaxin family peptide 3 receptor) (human) (UniProt Q9NSD7)
T1 sequence: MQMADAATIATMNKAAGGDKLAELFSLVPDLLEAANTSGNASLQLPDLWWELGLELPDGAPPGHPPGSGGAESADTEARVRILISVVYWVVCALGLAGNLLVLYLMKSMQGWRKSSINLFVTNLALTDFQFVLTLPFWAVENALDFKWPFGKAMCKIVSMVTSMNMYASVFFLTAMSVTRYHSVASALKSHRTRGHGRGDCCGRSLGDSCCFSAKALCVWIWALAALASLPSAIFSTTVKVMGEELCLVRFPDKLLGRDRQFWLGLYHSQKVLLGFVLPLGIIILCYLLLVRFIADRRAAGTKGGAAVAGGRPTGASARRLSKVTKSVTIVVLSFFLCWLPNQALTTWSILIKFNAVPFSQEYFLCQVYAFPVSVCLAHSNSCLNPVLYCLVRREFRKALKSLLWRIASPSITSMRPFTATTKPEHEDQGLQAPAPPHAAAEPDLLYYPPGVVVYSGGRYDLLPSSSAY


Biological target: T1, N-terminally 3xHA-tagged human RXFP3 (relaxin family peptide 3 receptor) (human)
Experiment: affinity purification with mass spectrometry; SILAC; cells transfected with 3xHA-RXFP3 against empty vector; RIPA 0.1% SDS extracts; anti-HA beads overnight, eluted with 150 mM glycine-HCl pH 2.5; cells unstressed, or 100 nM H2O2 for 90 minutes, or 1 uM camptothecin for 3 hours (n=3 each)

| Molecule | binding |
| --- | --- |
| FAM98A (from UniProt Q8NCA5 1-518) | binds |
| PARP1 (from UniProt P09874 1-1014) | binds |
| YBX1 (from UniProt P67809 1-324) | binds |
| RBMX (from UniProt P38159 1-391) | binds |
| MAT2A (from UniProt P31153 1-395) | binds |
| FUS (from UniProt P35637 1-526) | binds |
| ELAVL1 (from UniProt Q15717 1-326) | binds |
| TRAP1 (protein, UniProt Q12931 60-704) STQTAEDKEEPLHSIISSTESVQGSTSKHEFQAETKKLLDIVARSLYSEKEVFIRELISNASDALEKLRHKLVSDGQALPEMEIHLQTNAEKGTITIQDTGIGMTQEELVSNLGTIARSGSKAFLDALQNQAEASSKIIGQFGVGFYSAFMVADRVEVYSRSAAPGSLGYQWLSDGSGVFEIAEASGVRTGTKIIIHLKSDCKEFSSEARVRDVVTKYSNFVSFPLYLNGRRMNTLQAIWMMDPKDVREWQHEEFYRYVAQAHDKPRYTLHYKTDAPLNIRSIFYVPDMKPSMFDVSRELGSSVALYSRKVLIQTKATDILPKWLRFIRGVVDSEDIPLNLSRELLQESALIRKLRDVLQQRLIKFFIDQSKKDAEKYAKFFEDYGLFMREGIVTATEQEVKEDIAKLLRYESSALPSGQLTSLSEYASRMRAGTRNIYYLCAPNRHLAEHSPYYEAMKKKDTEVLFCFEQFDELTLLHLREFDKKKLISVETDIVVDHYKEEKFEDRSPAAECLSEKETEELMAWMRNVLGSRVTNVKVTLRLDTHPAMVTVLEMGAARHFLRMQQLAKTQEERAQLLQPTLEINPRHALIKKLNQLRASEPGLAQLLVDQIYENAMIAAGLVDDPRAMVGRLNELLVKALERH | binds |
| AIMP1 (protein, UniProt Q12904 1-312) MANNDAVLKRLEQKGAEADQIIEYLKQQVSLLKEKAILQATLREEKKLRVENAKLKKEIEELKQELIQAEIQNGVKQIPFPSGTPLHANSMVSENVIQSTAVTTVSSGTKEQIKGGTGDEKKAKEKIEKKGEKKEKKQQSIAGSADSKPIDVSRLDLRIGCIITARKHPDADSLYVEEVDVGEIAPRTVVSGLVNHVPLEQMQNRMVILLCNLKPAKMRGVLSQAMVMCASSPEKIEILAPPNGSVPGDRITFDAFPGEPDKELNPKKKIWEQIQPDLHTNDECVATYKGVPFEVKGKGVCRAQTMSNSGIK | binds |
| PRDX6 (protein, UniProt P30041 1-224) MPGGLLLGDVAPNFEANTTVGRIRFHDFLGDSWGILFSHPRDFTPVCTTELGRAAKLAPEFAKRNVKLIALSIDSVEDHLAWSKDINAYNCEEPTEKLPFPIIDDRNRELAILLGMLDPAEKDEKGMPVTARVVFVFGPDKKLKLSILYPATTGRNFDEILRVVISLQLTAEKRVATPVDWKDGDSVMVLPTIPEEEAKKLFPKGVFTKELPSGKKYLRYTPQP | binds |

The remaining lines, values ahead:

| binding | Molecule |
| --- | --- |
| binds | MAP4 (from UniProt P27816 1-1152) |
| binds | IGFBP2 (from UniProt P18065 36-325) |
| binds | EIF4A1 (from UniProt P60842 1-406) |
| binds | cyclin-dependent kinase Inhibitor 2A (from UniProt P42771 1-156) |
| binds | proliferating cell nuclear antigen (from UniProt P12004 1-261) |
| binds | G3BP Stress Granule Assembly Factor 1 (from UniProt Q13283 1-466) |
| binds | SOD1 (from UniProt P00441 1-154) |
| binds | PRDX1 (protein, UniProt Q06830 1-199) MSSGNAKIGHPAPNFKATAVMPDGQFKDISLSDYKGKYVVFFFYPLDFTFVCPTEIIAFSDRAEEFKKLNCQVIGASVDSHFCHLAWVNTPKKQGGLGPMNIPLVSDPKRTIAQDYGVLKADEGISFRGLFIIDDKGILRQITVNDLPVGRSVDETLRLVQAFQFTDKHGEVCPAGWKPGSDTIKPDVQKSKEYFSKQK |
| binds | NONO (protein, UniProt Q15233 1-471) MQSNKTFNLEKQNHTPRKHHQHHHQQQHHQQQQQQPPPPPIPANGQQASSQNEGLTIDLKNFRKPGEKTFTQRSRLFVGNLPPDITEEEMRKLFEKYGKAGEVFIHKDKGFGFIRLETRTLAEIAKVELDNMPLRGKQLRVRFACHSASLTVRNLPQYVSNELLEEAFSVFGQVERAVVIVDDRGRPSGKGIVEFSGKPAARKALDRCSEGSFLLTTFPRPVTVEPMDQLDDEEGLPEKLVIKNQQFHKEREQPPRFAQPGSFEYEYAMRWKALIEMEKQQQDQVDRNIKEAREKLEMEMEAARHEHQVMLMRQDLMRRQEELRRMEELHNQEVQKRKQLELRQEEERRRREEEMRRQQEEMMRRQQEGFKGTFPDAREQEIRMGQMAMGGAMGINNRGAMPPAPVPAGTPAPPGPATMMPDGTLGLTPPTTERFGQAATMEGIGAIGGTPPAFNRAAPGAEFAPNKRRRY |

These are yes or no findings as the source states them, for the method shown. Binding seen in cells or lysates may run through a third protein. Here binding means that the protein was enriched with, or labelled near, the bait; the list need not be complete. Where a sequence is shown, tags or fusion partners need not be part of it.
